# Literature values in patent US20260077277A1, “DILUTABLE COMPOSITIONS AND PROCESSES FOR EXTRACTING AND REFINING POORLY WATER-SOLUBLE POLAR OILS FROM BIOMASS” (priority 2022, published 2026).
# For at least one compound, name, drawing or mass did not settle the structure.
# Conditions: cited from earlier work
compound,measurement,value
C=C(C)[C@H]1CC=C(C)CC1 [limonene],EACN,+6
